In paper PMC12040169 (PLOS Biology, 2025):
Some of the results follow.

Each molecule was assayed on T1, CTL2-GFP (C. trachomatis L2/434/Bu, GFP-expressing). Settings: bulk GFP, single well; 28.5 h, 10 µM; inhibitor.
T1 construct: L2/434/Bu, GFP-expressing
Set-up: species or system HeLa; Intracellular C. trachomatis growth in HeLa cells, bulk GFP fluorescence relative to DMSO

Structure (SMILES) | % of control remaining [%]
CC1CCCCN1CCCNc1cc(NS(=O)(=O)c2cn(C)cn2)cc2ccoc12 (stereo not shown) [CBK067940C] | 106.457
CC1(C)CC(=O)C(=CNCCC(c2ccccc2)c2ccccc2)C(=O)C1 [CBK262057] | 84.1983
CC(C)(C)C(=O)N1CCC(c2nc3ccccc3cc2N)CC1 [CBK285039] | 116.671
COc1ccc(S(=O)(=O)N(C)CC(=O)NCc2cccnc2)cc1Cl [CBK268089] | 77.523
Cc1c(C(=O)Nc2cccnc2)nnn1-c1cccc(C(F)(F)F)c1 [CBK107389] | 100.939
CC(C)c1cc(C(=O)NC2CCN(c3ncccc3C#N)CC2)n(C)n1 [CBK306975] | 86.3427
Cn1nccc1C(=O)N1CCN(c2ncccn2)CC1 [CBK288240] | 128.645
CCN1CCN(CC(=O)N/N=C/c2ccc(F)cc2)CC1 [CBK261615] | 92.7252
O=C(c1ccccn1)N1C[C@@H]2OCC(=O)N(Cc3ccccc3)[C@@H]2C1 [CBK289698] | 126.233
OCCNCc1cc(Br)ccc1OCc1ccc(F)cc1 [CBK266421C] | 138.225
CC(=O)Nc1cccc(Oc2nccnc2-c2cnn(Cc3ccccc3)c2)c1 [CBK107096] | 148.28
CCCS(=O)(=O)NC1CCN(c2nc(C(F)(F)F)nc3ccsc23)CC1 [CBK304591] | 107.299
O=C(Nc1ccncc1)c1cc2cc(OC(F)(F)F)ccc2[nH]1 [CBK107369] | 123.046
O=C(NCCC1SC(NC2CCCCCC2)=NC1=O)Nc1ccc(C(F)(F)F)cc1Cl (stereo not shown) [CBK067682] | 122.862
Oc1cccc(-c2cn3ccnc3c(NCc3ccccn3)n2)c1 [CBK037535] | 175.219
COc1ccc([C@@]23CC[C@@H](NS(=O)(=O)c4cccc5cccnc45)C[C@@H]2N(C)CC3)cc1OC [CBK056849T] | 118.321
c1ccc(C2CCCNC2)cc1 (stereo not shown) [CBK011753] | 97.5645
CN1CCC(=NNC(=O)CSCc2ccccc2Br)CC1 [CBK026542] | 109.604
COc1cc(CNC(=O)c2ccc(-c3ccc(NC(C)=O)cc3)nc2)cc(OC)c1OC [CBK158851] | 129.249
CCOc1cc2c(cc1CN(Cc1ccc3c(c1)OCO3)CC(C)O)CCC2 (stereo not shown) [CBK286474] | 120.607
COc1ccc(OC)c(NC(=O)CSc2nnc(-c3ccco3)o2)c1 [CBK267429] | 111.173
CCn1c(=O)n(CC(=O)NCc2ccccc2)c2cccnc21 [CBK283824] | 96.5567
CCc1cc(-c2n[nH]c(C(=O)O)c2-c2nc(C)cs2)c(O)cc1O [CBK268247] | 93.4827
COc1ccc(-c2cc(C(F)(F)F)nc(SCC(=O)Nc3ccc4c(c3)OCO4)n2)cc1OC [CBK266169] | 174.046
Cc1c(NCc2ccccn2)cccc1C(=O)O [CBK269651] | 126.54
NNC(=O)c1cc(O)n[nH]1 [CBK262669] | 109.241
CCOC(=O)C1=C(C)N(CCO)C(=O)NC1c1ccccc1Br (stereo not shown) [CBK027192] | 113.883

Structure (SMILES) | % of control remaining [%]
CC(NCC(O)c1ccco1)c1ccc(C#N)s1 (stereo not shown) [CBK304265] | 117.947
COC(=O)CCCC(=O)n1c(=O)n(Cc2ccc(S(C)(=O)=O)cc2)c2ccccc21 [CBK106538] | 65.5575
CC(C(=O)NC1(C#N)CCCCC1)N1CCOC(Cn2cncn2)C1 (stereo not shown) [CBK305359] | 107.117
O=C(O)CCc1ccc(-c2ccc(N3CCN(CCN4CCCC4)CC3)nc2)cc1 [CBK037796] | 152.927
N#Cc1sc2c(c1NC(=O)C(F)(F)F)CCCC2 [CBK019233] | 128.278
O=C(c1ccc(CCN2CCCC2)nc1)N1CCN(CCc2ccccc2)CC1 [CBK200227] | 104.921
Cc1cc(C)n(C(C(=O)NCCOc2ccc(F)cc2)C(C)C)n1 (stereo not shown) [CBK281595] | 136.915
Cc1nc(NC(=O)C2CC(=O)N(c3cccc(C(C)C)c3)C2)sc1-c1n[nH]c(=S)n1C (stereo not shown) [CBK295306] | 164.998
COc1ccc(-c2cc(C(=O)NCc3cc(Cl)cc(Cl)c3)cnc2-c2ccc(Cl)cc2)cn1 [CBK037431] | 217.11
N#Cc1ccc(N)c2ccccc12 [CBK015754] | 116.142
Cc1cc(Cn2nnc(-c3cccnc3)n2)cc(C)c1O [CBK291130] | 115.678
CC(C)CCc1csc(C2CN3CCCC3CO2)n1 (stereo not shown) [CBK304266] | 141.962
CS(=O)(=O)N1CC2(CCN(CCc3ccccc3)CC2)c2ccccc21 [CBK084015] | 138.084
O=C(NC(=S)CC1C=NCS1)c1ccccc1 (stereo not shown) [CBK020794] | 74.5431
Cc1ccc(S(N)(=O)=O)cc1NC(=O)Cc1ccccc1 [CBK024413] | 109.096
O=C(CCc1nc2ccccc2[nH]1)Nc1ccc(F)cc1 [CBK267238] | 113.48
Cc1ccc(Nc2cc(-c3cccc(N)c3)ncn2)cc1NS(C)(=O)=O [CBK091145] | 173.281
O=C(O)CCC(=O)Nc1nc(-c2ccccc2)cs1 [CBK286947] | 124.941
CN1CCN(C(=O)c2cc(-c3ccc(C(=O)N4CCOCC4)cc3)cnc2N)CC1 [CBK158584] | 130.508
O=C(O)CCC(=O)Nc1cccc(C(=O)Nc2cccc(Cl)c2)c1 [CBK296977] | 112.491
CC1(C)CC(NC(=O)c2cc([N+](=O)[O-])ccc2Cl)CC(C)(C)N1 [CBK263948] | 126.962
O=C(N/N=C/c1ccc([N+](=O)[O-])cc1)C(=O)Nc1cccc(Cl)c1 [CBK261821] | 111.863
Fc1cc(F)cc(-c2nnc(Cc3nc(-c4ccncc4)no3)o2)c1 [CBK288602] | 117.666
CC(=O)N1C[C@@H](c2ccsc2)[C@@H]2CN(CC3CCCCC3)CC[C@@H]21 [CBK284587] | 129.529
COCOc1ccc(-c2ncc(OC)nc2NC(=O)COC)cc1 [CBK145216] | 102.844
Cc1ccc(C)c2[nH]c(=O)c(CN(CCN3CCOCC3)Cc3nnnn3C3CCCCC3)cc12 [CBK108116] | 107.6
COc1ccccc1NC(=O)/C(=C\c1cccnc1)NC(=O)c1ccccc1 [CBK261649] | 118.418

Structure (SMILES) | % of control remaining [%]
Cc1ccc(S(=O)(=O)Nc2nccnc2-c2ccc(Cc3nnn[nH]3)cc2)cc1 [CBK073841] | 114.813
Cc1nc(C2(O)CCCN(C3CCCCC3)CC2)sc1COc1ccc(F)c(F)c1 (stereo not shown) [CBK286499] | 97.3436
CC(C)c1nccn1CC(=O)NCCOc1ccc(F)cc1 [CBK281597] | 136.326
Cc1oc(-c2ccccc2)nc1C(=O)O [CBK047490] | 149.519
CCC(CO)Nc1cncc(-c2cc(OC)c(OC)c(OC)c2)n1 (stereo not shown) [CBK037882] | 132.694
Cc1nn(C)c(Cl)c1S(=O)(=O)Nc1cc(NC2CCNC2)c2occc2c1 (stereo not shown) [CBK067807C] | 92.2309
COc1cncc(-c2cc(N3CCC(N4CCCCC4)CC3)ncn2)c1 [CBK090964] | 195.879
O=C(Nc1ccc2ncccc2c1)c1ccc(Cl)cc1Cl [CBK159793] | 115.166
CC(=O)CSc1nnc(COc2ccc(C3CCCCC3)cc2)n1-c1ccccc1 [CBK265026] | 84.6072
O=C(O)C1CCC(N2C(=O)C3C4CCC(C4)C3C2=O)CC1 (stereo not shown) [CBK287183] | 98.8816
O=c1[nH]c2ccccc2n1C1CCN(S(=O)(=O)c2ccc(OC(F)(F)F)cc2)CC1 [CBK149690] | 115.889
CCNc1nnc(SCCC(=O)N2CCN(c3ccc(F)cc3)CC2)s1 [CBK305058] | 94.9943
CCN(C(=O)c1cnc2scc(C)n2c1=O)c1ccccc1 [CBK287452] | 107.533
O=C(NCCCN1CCOCC1)c1nn2c(C(F)(F)F)cc(-c3cccs3)nc2c1Cl [CBK262553] | 122.114
Cc1ccc(S(=O)(=O)NCC(C)O)cc1-c1nnc2c3ccccc3c(C)nn12 (stereo not shown) [CBK266614] | 180.391
COc1ccc2[nH]c(SCC(=O)O)nc2c1 [CBK091620] | 121.669
CC(C)CC(C(=O)Nc1nnc(C(C)C)s1)N1C(=O)c2ccccc2C1=O (stereo not shown) [CBK091610] | 100
CC(=O)Nc1ccc(-c2cccc(COC3CCN(C(=O)c4ccc(OC(C)C)cc4)CC3)c2)cc1 [CBK149485] | 10.9178
Cc1ccc2oc(-c3cc(NC(=O)c4nc[nH]n4)ccc3O)nc2c1 [CBK266900] | 108.472
Cn1c(Cc2csc(NC(=O)CNC(=O)Cc3ccccc3)n2)n[nH]c1=S [CBK296765] | 188.384
Cn1cc(-c2nccnc2OCCc2cccs2)cn1 [CBK107066] | 122.024
CC(C)(CC(=O)O)CC(=O)Nc1ccc(Cl)c(Cl)c1 [CBK086500] | 141.596
CC(=O)NC1CCN(CC2(c3ccc(F)cc3)CCCC2)CC1 [CBK283327] | 123.496
O=c1oc2c(CN3CCN(CCO)CC3)c(O)ccc2cc1-c1nc(-c2ccc(Br)cc2)cs1 [CBK264949] | 100
Cc1ccc(S(=O)(=O)n2c(SCc3ccccc3)nc3ccccc32)cc1 [CBK293933] | 90.6369
